Data as given in PubChem BioAssay AID248 (DTP/NCI, 2004).
The list shows only some results of the screen, not a fair sample: it gathers tests that were run many times, whatever their T/C, doses with no T/C, and many T/C values between a quarter and a half above the control. Other doses and runs of a compound stand elsewhere. T/C: endpoint of the treated group in % of that of the vehicle group. Some doses have a count of surviving animals in place of a T/C: the source holds a T/C of zero for them, seemingly a mark for toxic or unscored doses. Some doses without a T/C left all or most animals alive at the check, yet need not have been tolerated: survival well below the control is almost never listed, so the zero probably covers shortened survival too. Counts of survivors are from the toxicity check (mostly the fifth day) where no day follows; animals may have died later. Schedule codes are those of the source, read here as Q, the interval in days (D) or hours (H), X, the number of doses. Some schedule codes hold Z or #, which are not explained here. Where survival is the endpoint, the PubChem record calls one and a half times the control and up active, and a quarter to a half above the control has no call in these data; cut-offs in other NCI protocols can differ. Some T/C values carry the count of animals alive at the toxicity check (mostly the fifth day); without a count, all were alive then. Some doses were run more than once; their values stand side by side, smallest first.

Test system: L1210 leukemia ip in BDF1 mice, survival T/C
Assay: NCI In Vivo Anticancer Drug Screen. Data for tumor model L1210 Leukemia (intraperitoneal) in B6D2F1 (BDF1) mice
Conditions: T/C endpoint: mean survival time, higher T/C = longer survival
[1] = dose: 400.0 mg/kg/injection, schedule: Q04DX003 (ip), vehicle: saline
[2] = dose: 400.0 mg/kg/injection, schedule: Q01DX009 (ip), vehicle: Klucel (hydroxypropylcellulose) (HPC)
[3] = dose: 100.0 mg/kg/injection, schedule: Q04DX003 (ip), vehicle: Klucel (hydroxypropylcellulose) (HPC)
[4] = dose: 400.0 mg/kg/injection, schedule: Q01DX009 (ip), vehicle: saline
[5] = dose: 200.0 mg/kg/injection, schedule: Q04DX003 (ip), vehicle: Klucel (hydroxypropylcellulose) (HPC)
[6] = dose: 25.0 mg/kg/injection, schedule: Q01DX009 (ip), vehicle: Klucel (hydroxypropylcellulose) (HPC)
[7] = dose: 50.0 mg/kg/injection, schedule: Q04DX003 (ip), vehicle: Klucel (hydroxypropylcellulose) (HPC)
[8] = dose: 400.0 mg/kg/injection, schedule: Q04DX003 (ip), vehicle: Klucel (hydroxypropylcellulose) (HPC)
[9] = dose: 200.0 mg/kg/injection, schedule: Q01DX009 (ip), vehicle: Klucel (hydroxypropylcellulose) (HPC)
[10] = dose: 100.0 mg/kg/injection, schedule: Q01DX009 (ip), vehicle: saline with Tween-80

CC(C)C(=O)Nc1cccc(O)c1
survivor count (dose: 400.0 mg/kg/injection, schedule: Q01DX009 (ip), vehicle: saline with Tween-80): 3 of 6

Cc1ccc(S(=O)(=O)NCl)cc1
survivor count (dose: 200.0 mg/kg/injection, schedule: Q04DX003 (ip), vehicle: saline): 1 of 6
survivor count [1]: 0 of 6

CCN(CC)CCNc1cc(C)nc(/N=C(\N)Nc2ccc(OCc3ccccc3)cc2)n1
survivor count (dose: 25.0 mg/kg/injection, schedule: Q01DX009 (ip), vehicle: saline with Tween-80): 3 of 6

CSC12OCC(O1)C1OC(C)(C)OC(C=O)C1O2 (stereo unspecified)
survivor count (dose: 200.0 mg/kg/injection, schedule: Q04DX002 (ip), vehicle: saline): 3 of 3

OC1C2CC3C1C3C2c1ccccc1 (stereo unspecified)
survivor count [2]: 6 of 6

CCC(CC)(COS(=O)(=O)c1ccc(C)cc1)COS(=O)(=O)c1ccc(C)cc1
T/C [3]: 128 % of control

Cc1nc2nc(N)[nH]c(=O)c2[nH]c1=O
survivor count [4]: 6 of 6

Fc1ccc2[nH]c3c(c2c1)C[P+](Cc1cccc2ccccc12)(c1ccccc1)CC3 (stereo unspecified)
survivor count [1]: 6 of 6

O=C(Nc1cccc(C(=O)Nc2cc(C3=NCCN3)cc(C3=NCCN3)c2)c1)Nc1cccc(C(=O)Nc2cc(C3=NCCN3)cc(C3=NCCN3)c2)c1
survivor count (dose: 120.0 mg/kg/injection, schedule: Q01DX Z (ip), vehicle: methylcellulose (MC)): 2 of 6

O=C1OC(c2ccccc2)(c2ccccc2)Cc2ccccc21
survivor count [5]: 6 of 6

C[As](C)Sc1ncccn1
survivor count [6]: 0 of 6
survivor count [7]: 1 of 6
survivor count [3]: 4 of 6
survivor count [5]: 1 of 6
survivor count [8]: 0 of 6

CC1CCC2(C)CCC(C(C)C)C2(O)CC1 (stereo unspecified)
survivor count (dose: 400.0 mg/kg/injection, schedule: Q04DX003 (ip), vehicle: saline sonified): 3 of 6

CC1(C)C2CC3C(=CCC4C(=O)OC(=O)C43)C1C2 (stereo unspecified)
survivor count [2]: 3 of 6

OC(c1ccccc1)(c1ccccc1)C1CCC1
survivor count [9]: 5 of 5

C[N+]1(C)C2CCCC1CCC2
survivor count (dose: 100.0 mg/kg/injection, schedule: Q04DX002 (ip), vehicle: Klucel (hydroxypropylcellulose) (HPC)): 0 of 3
survivor count (dose: 200.0 mg/kg/injection, schedule: Q04DX002 (ip), vehicle: Klucel (hydroxypropylcellulose) (HPC)): 0 of 3
survivor count (dose: 400.0 mg/kg/injection, schedule: Q04DX002 (ip), vehicle: Klucel (hydroxypropylcellulose) (HPC)): 0 of 3

O=S(=O)(Cc1cccc(C(F)(F)F)c1)c1ccccc1-n1cccc1
survivor count [3]: 5 of 6

CCCCCCCCCCCCCCC(F)C(=O)OCC1OC(CO)(OC2OC(CO)C(O)C(O)C2O)C(O)C1O (stereo unspecified)
survivor count [10]: 6 of 6
survivor count (dose: 200.0 mg/kg/injection, schedule: Q04DX003 (ip), vehicle: saline with Tween-80): 0 of 6
survivor count (dose: 400.0 mg/kg/injection, schedule: Q04DX003 (ip), vehicle: saline with Tween-80): 0 of 6

CC(=O)CC(=O)N(C)c1ccccc1
survivor count (dose: 300.0 mg/kg/injection, schedule: Q01DX001 (ip), vehicle: carboxymethylcellulose (CMC)): 1 of 6

CCN(CC)c1ccc(C(=C(c2ccc(N(CC)CC)cc2)c2ccc(N(CC)CC)cc2)c2ccc(N(CC)CC)cc2)cc1
survivor count [8]: 6 of 6

O=NN(CCCl)C(=O)Nc1c[nH]c(=O)[nH]c1=O
T/C (dose: 5.0 mg/kg/injection, schedule: Q01DX001 (ip), vehicle: carboxymethylcellulose (CMC)): 137 % of control
T/C (dose: 9.0 mg/kg/injection, schedule: Q01DX Z (ip), vehicle: carboxymethylcellulose (CMC)): 145 % of control
T/C (dose: 10.0 mg/kg/injection, schedule: Q01DX001 (ip), vehicle: carboxymethylcellulose (CMC)): 139 % of control
survivor count (dose: 37.0 mg/kg/injection, schedule: Q01DX Z (ip), vehicle: carboxymethylcellulose (CMC)): 4 of 6
survivor count (dose: 50.0 mg/kg/injection, schedule: Q01DX Z (ip), vehicle: carboxymethylcellulose (CMC)): 6 of 6
survivor count (dose: 75.0 mg/kg/injection, schedule: Q01DX Z (ip), vehicle: carboxymethylcellulose (CMC)): 3 of 6
T/C (dose: 100.0 mg/kg/injection, schedule: Q01DX001 (ip), vehicle: carboxymethylcellulose (CMC)): 145 % of control
survivor count (dose: 100.0 mg/kg/injection, schedule: Q01DX Z (ip), vehicle: carboxymethylcellulose (CMC)): 0 of 6
survivor count (dose: 150.0 mg/kg/injection, schedule: Q01DX Z (ip), vehicle: carboxymethylcellulose (CMC)): 1 of 6
survivor count (dose: 250.0 mg/kg/injection, schedule: Q01DX001 (ip), vehicle: carboxymethylcellulose (CMC)): 6 of 6
survivor count (dose: 375.0 mg/kg/injection, schedule: Q01DX001 (ip), vehicle: carboxymethylcellulose (CMC)): 4 of 6
survivor count (dose: 500.0 mg/kg/injection, schedule: Q01DX001 (ip), vehicle: carboxymethylcellulose (CMC)): 1 of 6

Oc1ccc(Cl)c2cccnc12
survivor count (dose: 400.0 mg/kg/injection, schedule: Q01DX001 (ip), vehicle: carboxymethylcellulose (CMC)): 2 of 4

O=[N+]([O-])c1ccc2nc[nH]c2c1
survivor count [10]: 5 of 6
survivor count (dose: 200.0 mg/kg/injection, schedule: Q01DX Z (ip), vehicle: distilled water + alcohol): 0 of 6

CCC(NC(=O)CCl)C(=O)O (stereo unspecified)
survivor count (dose: 400.0 mg/kg/injection, schedule: Q04DX002 (ip), vehicle: saline): 0 of 3

NC(=S)SCCC(=O)O
survivor count [3]: 2 of 6

CCC[CH2][Sn]1([CH2]CCC)[O]OC(C)(CC)[O]1 (stereo unspecified)
survivor count (dose: 6.25 mg/kg/injection, schedule: Q01DX009 (ip), vehicle: Klucel (hydroxypropylcellulose) (HPC)): 0 of 6
survivor count (dose: 12.5 mg/kg/injection, schedule: Q01DX009 (ip), vehicle: Klucel (hydroxypropylcellulose) (HPC)): 0 of 6
survivor count (dose: 12.5 mg/kg/injection, schedule: Q01DX009 (ip), vehicle: saline sonified): 4 of 6
survivor count [6]: 0 of 6
survivor count (dose: 25.0 mg/kg/injection, schedule: Q01DX009 (ip), vehicle: saline sonified): 0 of 6

CN(C)N=Nc1cn[nH]c1C(N)=O
T/C (dose: 100.0 mg/kg/injection, schedule: Q01DX009 (ip), vehicle: Klucel (hydroxypropylcellulose) (HPC)): 104 [5 of 6 alive], 120 [5 of 6 alive], 136 [5 of 6 alive], 142 % of control
T/C [9]: 125 % of control
T/C [5]: 130 % of control
survivor count [4]: 5 of 6
T/C [1]: 135 % of control
survivor count (dose: 600.0 mg/kg/injection, schedule: Q01DX009 (ip), vehicle: saline): 0 of 6

CN1CCC(CSC(=O)C(O)(c2ccccc2)C2CCCCC2)C1 (stereo unspecified)
survivor count (dose: 150.0 mg/kg/injection, schedule: Q01DX001 (ip), vehicle: saline): 1 of 6
survivor count (dose: 300.0 mg/kg/injection, schedule: Q01DX001 (ip), vehicle: saline): 0 of 6

Nc1ccc([I+]c2ccccc2)cc1
survivor count (dose: 200.0 mg/kg/injection, schedule: Q01DX001 (ip), vehicle: saline): 0 of 4
survivor count (dose: 400.0 mg/kg/injection, schedule: Q01DX001 (ip), vehicle: saline): 0 of 4

N#CCCC1C2CCC(C2)C1C#N (stereo unspecified)
survivor count (dose: 25.0 mg/kg/injection, schedule: Q04DX003 (ip), vehicle: Klucel (hydroxypropylcellulose) (HPC)): 1 of 6
survivor count [7]: 0 of 6
survivor count [3]: 0 of 6
survivor count [5]: 0 of 6
survivor count [8]: 0 of 6

CCc1cccc[n+]1CC(=O)c1ccccc1
survivor count (dose: 25.0 mg/kg/injection, schedule: Q01DX009 (ip), vehicle: saline): 0 of 6
survivor count (dose: 50.0 mg/kg/injection, schedule: Q04DX003 (ip), vehicle: saline): 0 of 6
survivor count (dose: 100.0 mg/kg/injection, schedule: Q04DX003 (ip), vehicle: saline): 0 of 6

O=C(O)c1cc(Br)c2ccccc2c1O
survivor count [5]: 3 of 6
survivor count [8]: 0 of 6

COc1ccc(NC(=O)C(CC(C(C)=O)C(=O)Nc2ccc(OC)cc2)C(C)=O)cc1 (stereo unspecified)
survivor count (dose: 200.0 mg/kg/injection, schedule: Q01DX009 (ip), vehicle: saline with Tween-80): 6 of 6
